From article doi:10.1101/2021.11.02.466974
Results are given in words; binding and its absence hold for the method and conditions named. Binding seen in cells or lysates may run through a third protein. Some results given as binding are weak or reduced against the parent protein; the word gives no strength.

Target: T1, endogenous FADD (mouse (endogenous in MEFs)) (UniProt Q61160)
T1 sequence: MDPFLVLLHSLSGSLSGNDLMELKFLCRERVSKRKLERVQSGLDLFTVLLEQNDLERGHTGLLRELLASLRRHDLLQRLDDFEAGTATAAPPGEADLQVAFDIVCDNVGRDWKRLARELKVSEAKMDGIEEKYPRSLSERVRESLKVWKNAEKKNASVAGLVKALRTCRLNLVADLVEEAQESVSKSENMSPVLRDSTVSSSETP
Experiment: co-IP

B1: endogenous mouse N4BP1 (NEDD4-binding protein 1) (protein, UniProt Q6A037 1-893)
chain: MAARVVLDEFTAPAEKAALLERSRGRIEALFGVGLAVLGALGAEEPLPARIWLQLRGAQEAVHSAKEYIKGICEPELEEKECYPKAMHCIFVGAQSLFLKSLIQDTCADLCVLDTGLLGIRGSAEAVVMARSHIQQFVKLFESNENLPSNQRESEIKREFRQFVEAHADSYTMDLLILPTSLKKELLSLTQGEESLFETDDDVITVGDVRPPEYTQSAATGPSSARDEVVVQEDSRNKARTPVSELTKHMDTVFSSSPDVLFVPVNGLSPDEDALSKDRVCHKRRSSDTEERHTKKQFSLENVPEGELLPDGKGSAGNEVIDLSDPASNSTNLSPDGKDTTEEMEYNILVNFFKTMGYSQEIVEKVIREYGPSTEPLLLLEEIEKENKRLQEDRDFPPCTVYPDASQSRNAGVGSTTNELTADSTPKKAQSHTEQSMVERFSQLPFKDSKHCTSNCKVNSFRTVPVGQKQEIWGSKQNSSCTVDLETDGHSASAASASPKDISFVSRGASGHQQRNPAFPENGFQQQTEPLLPNNTKPACEKRSGSCSSPQPKPNYPPLSPPLPLPQLLPSVTEARLGGSSDHIDSSVTGVQRFRDTLKIPYKLELKNEPGRADLKHIVIDGSNVAITHGLKKFFSCRGIAIAVEYFWKLGNRNITVFVPQWRTRRDPNITEQHFLTQLQELGILSLTPARMVFGERIASHDDRFLLHLADKTGGIIVTNDNFREFVTESVSWREIITKRLLQYTFVGDIFMVPDDPLGRNGPRLEEFLRKEAFLRHMQPLLNALPSVGTFDPGFRSPSTQVANNSHQPPPRIQTSSSPWLPQQSHFTALATLPSMQQNPPLPAQRSSAETSELREALLKIFPDSEQKLKIDQILAAHPYMKDLNALSALVLD
binding: binds
